Results: PMC6349933
No constants are given. Whether binding was seen depends on the method and setting. For some of these results: Binding calls can cover weak binding; strength is not graded here. For some of these results: In cells and extracts the contact can be indirect.

The chains behind the UniProt entries cited, without tags or fusion partners. Where a name states a change or a piece, a line headed by the entry shows the natural chain unless it says otherwise.
UniProt O82481: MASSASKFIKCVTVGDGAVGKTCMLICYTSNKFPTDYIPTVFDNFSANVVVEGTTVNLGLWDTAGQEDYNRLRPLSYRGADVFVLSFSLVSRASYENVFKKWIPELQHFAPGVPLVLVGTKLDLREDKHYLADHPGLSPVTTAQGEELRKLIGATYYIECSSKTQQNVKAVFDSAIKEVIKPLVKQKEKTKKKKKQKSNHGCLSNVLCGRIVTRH
UniProt Q9C6F8: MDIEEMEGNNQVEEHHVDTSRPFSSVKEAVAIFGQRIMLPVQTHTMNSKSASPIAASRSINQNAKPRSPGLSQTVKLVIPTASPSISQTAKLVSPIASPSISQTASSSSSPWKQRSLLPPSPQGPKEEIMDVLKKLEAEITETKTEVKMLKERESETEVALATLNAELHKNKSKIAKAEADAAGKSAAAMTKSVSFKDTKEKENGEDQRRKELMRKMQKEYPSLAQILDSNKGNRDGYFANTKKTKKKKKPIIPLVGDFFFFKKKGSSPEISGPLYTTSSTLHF

Assays:
[1] = biological target: cEYFP-ROP11T22N (Arabidopsis) (UniProt O82481); assay: split reporter; BiFC with halves of EYFP (nEYFP, cEYFP); transient co-expression in N. benthamiana (tobacco) leaf epidermal cells, estradiol-induced
[2] = biological target: cEYFP-ROP11 (Arabidopsis) (UniProt O82481); assay: as above
[3] = biological target: cEYFP-ROP11G17V (Arabidopsis) (UniProt O82481); assay: as above
[4] = biological target: 6× His-fused BDR1 (Arabidopsis thaliana) (UniProt Q9FG09); assay: pull-down; 1 μg of recombinant proteins mixed, room temperature 10 min; 6× His-BDR1 held on Ni Sepharose 6 Fast Flow resin; washed with Tris buffer (50 mM Tris-HCl, pH 7.5, 150 mM NaCl); western with anti-His and anti-GST; both purified

Row | binding [1] | binding [2] | binding [3] | binding [4] | Substance
1 | no binding | binds | binds | – | BDR1-nEYFP (from UniProt Q9FG09)
2 | – | – | – | binds | GST-WAL (from UniProt Q9C6F8)
